The supplement of paper PMC12819154, “High-throughput peptide-centric local stability assay extends protein–ligand identification to membrane proteins, tissues and bacteria” (Nature Structural & Molecular Biology, 2025)
The list shows a part of the results. Most entries show no effect beyond the scatter of the controls.

Chains of the proteins cited; added tags and fusions are not shown. Lines headed by an entry give the natural chain unless they say otherwise; changes in a name come on top.
UniProt O00154: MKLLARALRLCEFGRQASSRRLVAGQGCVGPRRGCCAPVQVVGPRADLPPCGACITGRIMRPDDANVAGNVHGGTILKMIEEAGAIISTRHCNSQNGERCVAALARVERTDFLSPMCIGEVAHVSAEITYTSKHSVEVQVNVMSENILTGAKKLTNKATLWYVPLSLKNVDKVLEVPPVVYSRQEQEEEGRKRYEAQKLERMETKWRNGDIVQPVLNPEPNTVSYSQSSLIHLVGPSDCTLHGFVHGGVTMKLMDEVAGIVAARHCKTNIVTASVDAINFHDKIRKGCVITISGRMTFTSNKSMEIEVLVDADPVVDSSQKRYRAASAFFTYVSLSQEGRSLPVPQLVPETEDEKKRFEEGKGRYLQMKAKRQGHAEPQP
UniProt O15315: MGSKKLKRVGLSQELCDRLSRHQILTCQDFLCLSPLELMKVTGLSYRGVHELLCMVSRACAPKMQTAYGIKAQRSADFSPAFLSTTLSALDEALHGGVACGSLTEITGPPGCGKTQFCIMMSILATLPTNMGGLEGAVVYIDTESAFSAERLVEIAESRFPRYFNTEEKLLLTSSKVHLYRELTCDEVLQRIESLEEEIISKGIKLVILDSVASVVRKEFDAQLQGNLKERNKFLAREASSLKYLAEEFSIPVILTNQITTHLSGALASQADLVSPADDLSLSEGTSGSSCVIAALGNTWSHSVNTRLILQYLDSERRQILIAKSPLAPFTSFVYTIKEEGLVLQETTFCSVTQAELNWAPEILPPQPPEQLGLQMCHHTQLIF
UniProt O00472: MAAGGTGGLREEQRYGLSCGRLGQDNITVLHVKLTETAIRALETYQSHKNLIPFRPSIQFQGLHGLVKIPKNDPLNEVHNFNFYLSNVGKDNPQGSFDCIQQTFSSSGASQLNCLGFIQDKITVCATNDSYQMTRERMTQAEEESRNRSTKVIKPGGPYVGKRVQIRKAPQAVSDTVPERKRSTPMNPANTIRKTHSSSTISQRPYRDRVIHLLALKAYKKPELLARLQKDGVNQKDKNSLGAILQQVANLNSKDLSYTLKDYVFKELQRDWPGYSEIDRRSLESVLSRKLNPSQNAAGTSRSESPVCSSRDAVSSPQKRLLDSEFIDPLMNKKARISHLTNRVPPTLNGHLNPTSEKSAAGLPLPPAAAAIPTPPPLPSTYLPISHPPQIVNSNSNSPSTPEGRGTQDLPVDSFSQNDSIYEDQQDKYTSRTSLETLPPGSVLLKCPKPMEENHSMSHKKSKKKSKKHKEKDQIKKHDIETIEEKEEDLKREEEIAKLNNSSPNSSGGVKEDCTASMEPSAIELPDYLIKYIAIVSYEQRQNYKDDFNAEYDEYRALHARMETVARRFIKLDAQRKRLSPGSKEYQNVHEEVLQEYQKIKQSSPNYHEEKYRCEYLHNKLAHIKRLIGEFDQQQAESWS
UniProt G2XKQ0: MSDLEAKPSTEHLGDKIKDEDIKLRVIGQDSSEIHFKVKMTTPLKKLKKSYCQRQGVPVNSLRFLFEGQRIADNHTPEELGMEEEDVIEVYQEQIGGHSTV
UniProt O14745: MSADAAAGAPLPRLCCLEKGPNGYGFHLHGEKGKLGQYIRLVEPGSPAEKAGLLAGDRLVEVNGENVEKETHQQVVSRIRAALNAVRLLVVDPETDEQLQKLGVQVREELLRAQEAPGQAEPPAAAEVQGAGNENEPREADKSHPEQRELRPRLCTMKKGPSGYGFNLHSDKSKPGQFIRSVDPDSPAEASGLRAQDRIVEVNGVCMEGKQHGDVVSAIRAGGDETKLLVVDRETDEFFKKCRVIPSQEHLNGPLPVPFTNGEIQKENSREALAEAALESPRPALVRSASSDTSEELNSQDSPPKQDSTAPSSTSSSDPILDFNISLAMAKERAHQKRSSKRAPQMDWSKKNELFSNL
UniProt O15182: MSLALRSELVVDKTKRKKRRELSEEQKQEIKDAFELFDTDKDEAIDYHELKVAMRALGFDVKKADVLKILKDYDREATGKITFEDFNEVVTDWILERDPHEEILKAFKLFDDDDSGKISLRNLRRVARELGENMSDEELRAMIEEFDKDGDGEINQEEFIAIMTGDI
UniProt O00244: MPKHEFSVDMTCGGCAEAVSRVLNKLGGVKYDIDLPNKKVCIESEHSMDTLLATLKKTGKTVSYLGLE
UniProt O15382: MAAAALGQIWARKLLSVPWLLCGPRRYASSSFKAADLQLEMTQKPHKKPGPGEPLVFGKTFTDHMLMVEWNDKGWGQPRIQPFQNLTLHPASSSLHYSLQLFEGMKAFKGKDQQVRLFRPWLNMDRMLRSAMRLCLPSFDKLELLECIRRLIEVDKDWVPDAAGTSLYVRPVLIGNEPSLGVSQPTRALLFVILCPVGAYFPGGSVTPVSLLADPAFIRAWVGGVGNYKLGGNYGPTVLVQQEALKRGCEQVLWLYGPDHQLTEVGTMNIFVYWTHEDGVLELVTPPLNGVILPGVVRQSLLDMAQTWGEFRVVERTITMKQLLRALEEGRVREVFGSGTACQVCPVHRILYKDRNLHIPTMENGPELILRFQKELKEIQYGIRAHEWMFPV
UniProt O14777: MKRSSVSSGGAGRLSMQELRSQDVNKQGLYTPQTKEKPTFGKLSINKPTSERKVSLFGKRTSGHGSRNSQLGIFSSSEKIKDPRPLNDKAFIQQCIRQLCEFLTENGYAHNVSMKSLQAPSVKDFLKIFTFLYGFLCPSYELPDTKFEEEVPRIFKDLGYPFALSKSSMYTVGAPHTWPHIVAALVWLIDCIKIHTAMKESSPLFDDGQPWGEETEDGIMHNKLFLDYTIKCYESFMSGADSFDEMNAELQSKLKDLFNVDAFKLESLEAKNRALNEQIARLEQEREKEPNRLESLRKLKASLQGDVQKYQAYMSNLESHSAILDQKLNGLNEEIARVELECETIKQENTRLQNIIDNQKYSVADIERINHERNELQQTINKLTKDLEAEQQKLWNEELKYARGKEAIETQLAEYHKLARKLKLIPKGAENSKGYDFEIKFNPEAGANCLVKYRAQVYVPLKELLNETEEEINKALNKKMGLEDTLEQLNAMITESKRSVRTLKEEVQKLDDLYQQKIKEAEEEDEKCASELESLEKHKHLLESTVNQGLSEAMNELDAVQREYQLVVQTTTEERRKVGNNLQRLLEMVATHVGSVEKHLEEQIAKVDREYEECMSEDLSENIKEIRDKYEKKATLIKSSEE
UniProt O00233: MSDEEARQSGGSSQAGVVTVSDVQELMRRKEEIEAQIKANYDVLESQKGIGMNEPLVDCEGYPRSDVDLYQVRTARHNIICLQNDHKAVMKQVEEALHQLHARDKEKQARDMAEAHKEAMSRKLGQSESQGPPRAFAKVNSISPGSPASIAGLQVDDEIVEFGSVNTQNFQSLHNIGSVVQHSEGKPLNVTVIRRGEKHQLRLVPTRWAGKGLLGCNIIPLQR
UniProt O15117, whole entry: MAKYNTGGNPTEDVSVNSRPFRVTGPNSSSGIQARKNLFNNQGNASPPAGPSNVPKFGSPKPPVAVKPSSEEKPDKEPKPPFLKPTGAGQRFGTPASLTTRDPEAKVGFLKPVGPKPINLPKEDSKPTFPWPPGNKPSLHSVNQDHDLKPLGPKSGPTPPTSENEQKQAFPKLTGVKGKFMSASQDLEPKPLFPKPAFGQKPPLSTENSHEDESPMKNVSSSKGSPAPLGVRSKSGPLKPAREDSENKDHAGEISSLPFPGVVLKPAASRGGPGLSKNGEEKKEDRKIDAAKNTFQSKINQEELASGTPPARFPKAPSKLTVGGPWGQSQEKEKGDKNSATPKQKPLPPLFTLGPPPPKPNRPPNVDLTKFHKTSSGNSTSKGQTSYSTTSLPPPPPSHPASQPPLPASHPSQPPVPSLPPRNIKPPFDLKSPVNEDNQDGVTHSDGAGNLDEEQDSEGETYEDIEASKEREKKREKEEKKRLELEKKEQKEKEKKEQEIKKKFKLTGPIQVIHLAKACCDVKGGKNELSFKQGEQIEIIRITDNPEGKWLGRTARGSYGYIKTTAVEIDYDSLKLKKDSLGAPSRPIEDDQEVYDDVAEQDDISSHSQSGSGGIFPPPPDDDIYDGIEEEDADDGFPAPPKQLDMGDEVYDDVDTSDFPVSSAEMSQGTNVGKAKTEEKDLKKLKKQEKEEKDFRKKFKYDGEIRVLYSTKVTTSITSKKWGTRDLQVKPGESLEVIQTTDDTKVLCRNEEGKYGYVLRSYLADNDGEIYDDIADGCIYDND
UniProt O00763, whole entry, looked up: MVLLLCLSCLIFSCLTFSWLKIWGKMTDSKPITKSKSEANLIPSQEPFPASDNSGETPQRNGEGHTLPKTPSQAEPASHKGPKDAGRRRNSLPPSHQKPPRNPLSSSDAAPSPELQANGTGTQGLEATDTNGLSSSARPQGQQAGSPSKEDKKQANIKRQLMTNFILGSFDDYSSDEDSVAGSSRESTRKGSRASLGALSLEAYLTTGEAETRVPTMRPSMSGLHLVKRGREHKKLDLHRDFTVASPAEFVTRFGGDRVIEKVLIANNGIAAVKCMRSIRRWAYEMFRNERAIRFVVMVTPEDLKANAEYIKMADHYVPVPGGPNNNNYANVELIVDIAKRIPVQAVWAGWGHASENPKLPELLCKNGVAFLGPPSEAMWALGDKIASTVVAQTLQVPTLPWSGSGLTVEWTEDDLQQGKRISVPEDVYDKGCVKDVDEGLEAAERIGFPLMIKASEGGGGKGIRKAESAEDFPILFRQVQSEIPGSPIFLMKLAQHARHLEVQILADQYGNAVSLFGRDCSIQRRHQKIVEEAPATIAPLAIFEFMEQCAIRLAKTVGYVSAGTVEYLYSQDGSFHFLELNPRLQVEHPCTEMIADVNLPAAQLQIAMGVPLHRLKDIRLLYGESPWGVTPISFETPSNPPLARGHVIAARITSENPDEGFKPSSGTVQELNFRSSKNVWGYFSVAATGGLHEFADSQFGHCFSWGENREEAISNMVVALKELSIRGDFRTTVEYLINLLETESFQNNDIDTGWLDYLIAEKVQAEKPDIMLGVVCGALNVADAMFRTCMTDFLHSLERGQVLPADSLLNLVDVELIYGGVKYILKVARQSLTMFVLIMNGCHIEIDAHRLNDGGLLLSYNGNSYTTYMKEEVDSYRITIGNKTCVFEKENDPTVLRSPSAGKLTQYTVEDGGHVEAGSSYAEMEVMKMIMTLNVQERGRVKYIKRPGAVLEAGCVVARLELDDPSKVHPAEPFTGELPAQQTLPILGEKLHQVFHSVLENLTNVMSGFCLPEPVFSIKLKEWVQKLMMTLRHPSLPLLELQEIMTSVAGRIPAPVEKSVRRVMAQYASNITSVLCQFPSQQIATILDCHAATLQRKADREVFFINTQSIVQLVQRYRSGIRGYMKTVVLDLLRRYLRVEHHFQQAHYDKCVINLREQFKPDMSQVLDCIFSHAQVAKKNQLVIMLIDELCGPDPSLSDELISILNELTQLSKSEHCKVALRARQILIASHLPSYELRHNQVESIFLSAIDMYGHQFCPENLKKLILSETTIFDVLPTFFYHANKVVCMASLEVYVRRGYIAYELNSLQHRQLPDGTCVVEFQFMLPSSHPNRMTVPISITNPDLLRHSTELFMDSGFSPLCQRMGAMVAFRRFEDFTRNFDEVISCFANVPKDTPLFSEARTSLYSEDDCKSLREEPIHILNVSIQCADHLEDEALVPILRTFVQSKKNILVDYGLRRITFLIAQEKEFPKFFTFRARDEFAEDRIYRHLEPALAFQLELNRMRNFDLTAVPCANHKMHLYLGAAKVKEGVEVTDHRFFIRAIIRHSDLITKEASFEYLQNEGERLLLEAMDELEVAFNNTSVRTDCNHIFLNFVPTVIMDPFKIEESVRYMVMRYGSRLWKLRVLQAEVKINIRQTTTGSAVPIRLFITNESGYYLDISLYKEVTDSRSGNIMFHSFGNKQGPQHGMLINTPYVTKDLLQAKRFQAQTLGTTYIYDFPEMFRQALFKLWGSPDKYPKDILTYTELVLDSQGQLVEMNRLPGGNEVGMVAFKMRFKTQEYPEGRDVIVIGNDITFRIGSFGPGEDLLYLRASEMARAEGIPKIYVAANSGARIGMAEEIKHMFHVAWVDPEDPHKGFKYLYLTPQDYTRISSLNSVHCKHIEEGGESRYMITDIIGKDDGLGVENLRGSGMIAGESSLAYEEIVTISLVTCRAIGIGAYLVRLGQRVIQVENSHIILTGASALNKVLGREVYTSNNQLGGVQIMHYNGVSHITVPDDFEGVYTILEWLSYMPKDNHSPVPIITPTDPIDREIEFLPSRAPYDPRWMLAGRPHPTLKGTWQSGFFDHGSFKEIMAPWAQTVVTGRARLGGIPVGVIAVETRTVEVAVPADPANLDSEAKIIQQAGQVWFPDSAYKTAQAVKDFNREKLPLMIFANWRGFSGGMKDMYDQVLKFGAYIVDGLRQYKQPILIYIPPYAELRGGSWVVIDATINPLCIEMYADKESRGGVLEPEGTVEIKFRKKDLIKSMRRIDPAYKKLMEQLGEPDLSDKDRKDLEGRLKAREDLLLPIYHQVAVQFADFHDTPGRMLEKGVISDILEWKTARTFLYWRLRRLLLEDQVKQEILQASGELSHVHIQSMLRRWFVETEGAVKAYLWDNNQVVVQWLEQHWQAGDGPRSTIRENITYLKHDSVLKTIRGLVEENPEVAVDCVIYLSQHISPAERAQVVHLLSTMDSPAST

compound: Cc1nc(Nc2ncc(C(=O)Nc3c(C)cccc3Cl)s2)cc(N2CCN(CCO)CC2)n1 [dasatinib]; experiment: log2 fold change of tryptic peptide abundance, ligand vs vehicle (limited proteolysis) (log2 ratio); higher = more trypsin-susceptible (destabilized); conditions: ligand concentration: 5 uM; sample: K562 cleared lysate

Q: For “PPM1G (peptide sequence: CSGDGVGAPR, peptide start residue: 13) (UniProt O15355)”, which log2 fold change is on record?
A: 0.138

Q: How did the log2 fold change turn out when “ACOT7 (peptide sequence: SLPVPQLVPETEDEKKR, peptide start residue: 341) (UniProt O00154)” was run?
A: 0.228

Q: “FPGT (peptide sequence: FLHKPSIEK, peptide start residue: 240) (UniProt O14772)” was tested. Which log2 fold change did it give?
A: 0.0364

Q: “UniProt O15315 (peptide sequence: RVGLSQELCDR, peptide start residue: 8)” was tested. Which log2 fold change did it give?
A: -0.755

Q: With “UniProt O00472 (peptide sequence: STPMNPANTIR, peptide start residue: 183)” as the target, how does the log2 fold change read?
A: 0.0196

Q: With “UniProt O14529 (peptide sequence: VVLAPEEK, peptide start residue: 1249)” as the target, how does the log2 fold change read?
A: 0.275

Q: Which log2 fold change does the source give for “STX16 (peptide sequence: ELASLHDK, peptide start residue: 98) (UniProt O14662)” here?
A: 0.153

Q: “UniProt G2XKQ0 (peptide sequence: VIGQDSSEIHFK, peptide start residue: 26)” was tested. Which log2 fold change did it give?
A: 0.0861

Q: “SLC9A3R1 (peptide sequence: LCCLEKGPNGYGFHLHGEK, peptide start residue: 14) (UniProt O14745)” was tested. Which log2 fold change did it give?
A: 0.377

Q: How did the log2 fold change turn out when “GOLIM4 (peptide sequence: EHQEALHQQR, peptide start residue: 429) (UniProt O00461)” was run?
A: 0.57

Q: Which log2 fold change does the source give for “UniProt O15265 (peptide sequence: AAAAAGGAAAAAAR, peptide start residue: 16)” here?
A: -0.512

Q: For “MEIS2 (peptide sequence: SDHEELSGSSTNLADHNPSSWR, peptide start residue: 198) (UniProt O14770)”, which log2 fold change is on record?
A: 0.0952

Q: “POLR3G (peptide sequence: MEELEKR, peptide start residue: 145) (UniProt O15318)” was tested. Which log2 fold change did it give?
A: -0.356

Q: With “PFAS (peptide sequence: IVLVDDRECPVR, peptide start residue: 598) (UniProt O15067)” as the target, how does the log2 fold change read?
A: 0.615

Q: For “TCERG1 (peptide sequence: LIVAYVDDLDRR, peptide start residue: 1070) (UniProt O14776)”, which log2 fold change is on record?
A: 0.0886

Q: Which log2 fold change does the source give for “CETN3 (peptide sequence: LFDDDDSGK, peptide start residue: 109) (UniProt O15182)” here?
A: 0.241

Q: With “IPO8 (peptide sequence: IIVSDHVEFPVR, peptide start residue: 42) (UniProt O15397)” as the target, how does the log2 fold change read?
A: 0.0742

Q: For “ATOX1 (peptide sequence: YDIDLPNK, peptide start residue: 31) (UniProt O00244)”, which log2 fold change is on record?
A: 0.334

Q: With “BCAT2 (peptide sequence: LFRPWLNMDR, peptide start residue: 117) (UniProt O15382)” as the target, how does the log2 fold change read?
A: 0.157

Q: “LIN7A (peptide sequence: ATVAAFAASEGHSHPR, peptide start residue: 77) (UniProt O14910)” was tested. Which log2 fold change did it give?
A: 0.122

Q: For “UniProt O00507 (peptide sequence: LLQISSFNGK, peptide start residue: 342)”, which log2 fold change is on record?
A: -0.247

Q: With “UniProt A8MYV0 (peptide sequence: KMAREWK, peptide start residue: 355)” as the target, how does the log2 fold change read?
A: -0.0154

Q: How did the log2 fold change turn out when “UniProt O00148 (peptide sequence: FSKYMPSVK, peptide start residue: 135)” was run?
A: 0.282

Q: With “LSM1 (peptide sequence: DRGLSIPR, peptide start residue: 119) (UniProt O15116)” as the target, how does the log2 fold change read?
A: 0.181

Q: How did the log2 fold change turn out when “STXBP3 (peptide sequence: IENESDMIR, peptide start residue: 432) (UniProt O00186)” was run?
A: 0.273

Q: Which log2 fold change does the source give for “NDC80 (peptide sequence: EEVQKLDDLYQQK, peptide start residue: 505) (UniProt O14777)” here?
A: 0.744

Q: With “PSMD9 (peptide sequence: LGQSESQGPPR, peptide start residue: 124) (UniProt O00233)” as the target, how does the log2 fold change read?
A: 0.299

Q: With “GIPC1 (peptide sequence: SRGPATVEDLPSAFEEK, peptide start residue: 247) (UniProt O14908)” as the target, how does the log2 fold change read?
A: 0.0535

Q: “UniProt O14920 (peptide sequence: KYLNQFENCCGLR, peptide start residue: 106)” was tested. Which log2 fold change did it give?
A: 0.331

Q: “FANCA (peptide sequence: ASDAVQMQR, peptide start residue: 336) (UniProt O15360)” was tested. Which log2 fold change did it give?
A: -0.598

Q: With “UniProt O15117 (peptide sequence: FKYDGEIR, peptide start residue: 699)” as the target, how does the log2 fold change read?
A: 0.284

Q: For “CEP290 (peptide sequence: NTCIIEDLKNELQR, peptide start residue: 381) (UniProt O15078)”, which log2 fold change is on record?
A: 0.884

Q: With “GEMIN2 (peptide sequence: SEDEEGWK, peptide start residue: 138) (UniProt O14893)” as the target, how does the log2 fold change read?
A: -0.27

Q: Which log2 fold change does the source give for “UniProt B3KNS4 (peptide sequence: RDPWYSTVGLLPPVR, peptide start residue: 20)” here?
A: 0.0697

Q: “UniProt A8MQ14 (peptide sequence: MYTDERPHECQESVK, peptide start residue: 246)” was tested. Which log2 fold change did it give?
A: -0.159

Q: Which log2 fold change does the source give for “CFLAR (peptide sequence: DVAIDVVPPNVR, peptide start residue: 27) (UniProt O15519)” here?
A: 0.17

Q: How did the log2 fold change turn out when “ACACB (peptide sequence: IGFPLMIK, peptide start residue: 447) (UniProt O00763)” was run?
A: 0.158
